Earlier results in patent US12145931B2, “Substituted pyrrolo[2,3-c]quinolines as antimalarials” (COUNCIL OF SCIENTIFIC AND INDUSTRIAL RESEARCH, priority 2018, dated 2024).
Some entries share one result that the patent states for a list of compounds. At least one structure is not confirmed: it was looked up by name or label, or the drawing left a doubt.

System: 3D7 strain of P. falciparum
Details: standard anti-malarials used as positive control; cited from earlier work

O=C1C(O)=C([C@H]2CC[C@H](c3ccc(Cl)cc3)CC2)C(=O)c2ccccc21 [atovaquone]
IC50: > 20 nM

C[C@@H]1CC[C@H]2[C@@H](C)C(=O)O[C@@H]3O[C@@]4(C)CC[C@@H]1[C@]32OO4 [artemisinine]
IC50: > 20 nM
